Data set [1] in a line: antioxidising power on a vinyl resin, conventional oven at […] C. Also noted: key: The symbol "B" indicates "burnt"; the index "+" signifies that the colour is disposed half-way between the lower unit and the upper half-unit; the index "-" signifies that the colour is between the lower half-unit and the upper unit; >2 means that it is between 2 and 2^+.
The nature of data set [2]: lubricating power, adhesion time on calender-type mixer (Example 32). Conditions: 0.3 p.c.r.; 165°-170° C.
Data set [3] can be described thus: photostabilising, flexible vinyl chloride-vinyl acetate copolymer (Example 6). The following applies: Test A, 0.3 part.
The nature of data set [4]: static thermostability of polyvinyl chloride, oven at 210° C. Also noted: key: The symbol "B" indicates "burnt"; the index "+" signifies that the colour is disposed half-way between the lower unit and the upper half-unit; the index "-" signifies that the colour is between the lower half-unit and the upper unit; >2 means that it is between 2 and 2^+. Conditions: Ex. 10, 0.3 part.

A short description of data set [5]: static thermostability of polyvinyl chloride, oven at […] C. Also noted: key: The symbol "B" indicates "burnt"; the index "+" signifies that the colour is disposed half-way between the lower unit and the upper half-unit; the index "-" signifies that the colour is between the lower half-unit and the upper unit; >2 means that it is between 2 and 2^+.
Where [6] appears, read: equimolecular, 1.55×1^-3 mole, 0 min.
[7] abbreviates: equimolecular, 1.55×1^-3 mole, 6 min.
[8] abbreviates: equimolecular, 1.55×1^-3 mole, 12 min.
The mark [9] stands for this setting: equimolecular, 1.55×1^-3 mole, 18 min.
Setting [10] is: equimolecular, 1.55×1^-3 mole, 24 min.
Setting [11] is: equimolecular, 1.55×1^-3 mole, 27 min.
Where [12] appears, read: equimolecular, 1.55×1^-3 mole, 30 min.
[13] abbreviates: equimolecular, 1.55×1^-3 mole, 33 min.
Where [14] appears, read: equimolecular, 1.55×1^-3 mole, 36 min.

Molecules are shown by their SMILES. “And” between values parts separate entries of the source, which are not always exact repeats. Identical values can stand only once.

Regarding `Cc1cc(C(C)(C)C)c(O)c(C(C)(C)C)c1` [BHT, Di-tert.-2,6-butyl-4-methyl phenol, reference compound], the Coloration result in data set [1] (0.05, 80 min) is reported as “B”; in data set [1] (0.1, 80 min) it was “B”; in data set [1] (0.2, 80 min) it was “B”; in data set [1] (0.3, 80 min), “B”; in data set [1] (0.4, 80 min) it was “B”; in data set [1] (0.5, 80 min), “B”. Further, in data set [1] (last pair, concentration not given, 80 min), the Coloration entry is on record as “B”.
With `COC(=O)C1=C(C)NC(C)=C(C(=O)OC)C1` [L.28504, 2,6-Dimethyl-3,5-dicarbomethoxy-1,4-dihydropyridine], the Adhesion time in data set [2] is given as 12 min. For the same compound, the Coloration in data set [3] (after 24 hours) is listed as 1 degrees Gardner; in data set [3] (time 0), 1 degrees Gardner; in data set [1] (0.05, 80 min), “B”; in data set [1] (0.1, 80 min), “B”; in data set [1] (0.2, 80 min) it was “B”; in data set [1] (0.3, 80 min), “B”. The Coloration entry in data set [1] (0.4, 80 min) is recorded as “B”; in data set [1] (0.5, 80 min) it was “B”; in data set [1] (last pair, concentration not given, 70 min), “B”. In addition, the colour is 1 Gardner in data set [4] (0 min); 1 Gardner in data set [4] (3 min); 2 Gardner and 1 Gardner in data set [4] (6 min); 3 Gardner and 2.5 Gardner in data set [4] (9 min); “B” in data set [4] (18 min); 1 Gardner in data set [5] (0.3 part, 0 min). In addition, the colour amounted to 1 Gardner in data set [5] (0.3 part, 6 min); 1 Gardner in data set [5] (setting [6]); 1 Gardner in data set [5] (setting [7]); 1 Gardner in data set [5] (setting [8]); 4 Gardner in data set [5] (setting [9]); 5 Gardner in data set [5] (setting [10]). Besides, the colour in data set [5] (setting [11]) is 8 Gardner; in data set [5] (setting [12]) it was 11 Gardner; in data set [5] (setting [13]), 15 Gardner; in data set [5] (setting [14]), “B”.
On to `COc1ccc(OC(=O)C2=C(C)NC(C)=C(C(=O)Oc3ccc(OC)cc3)C2)cc1` [L.28541], for which the Coloration in data set [3] (after 24 hours) is 4 degrees Gardner; in data set [3] (time 0), 1 degrees Gardner. The colour in data set [4] (0 min) is 1 Gardner; in data set [4] (3 min), 1 Gardner; in data set [4] (6 min) it was 1.5 Gardner; in data set [4] (9 min), 3 Gardner; in data set [4] (12 min), 5 Gardner; in data set [4] (15 min), 11 Gardner. Also, the colour result is reported as “B” in data set [4] (18 min); 1 Gardner in data set [5] (setting [6]); 1 Gardner in data set [5] (setting [7]); 2 Gardner in data set [5] (setting [8]); 7 Gardner in data set [5] (setting [9]); 9 Gardner in data set [5] (setting [10]). Moreover, the colour in data set [5] (setting [11]) is reported as 9 Gardner; in data set [5] (setting [12]) it was 10 Gardner; in data set [5] (setting [13]), 16 Gardner; in data set [5] (setting [14]) it was “B”.

The values are drawn from US4209439A, “Stabilization of vinyl resins” (priority 1977, dated 1980).
